Results deposited as PubChem BioAssay AID686938 (Drosophila RNAi Screening Center, 2013).

Test: 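Looking for CRAC channel components and the factors controlling them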 (primary screen)
Cells: Drosophila S2R+ cells
Reagents: long dsRNA against Drosophila genes, about 0.25 µg dsRNA per well, roughly 10,000 cells
Timing: 5 days of knock-down before the calcium assay
Challenge: thapsigargin (SERCA pump blocker) to empty calcium stores; entry signal taken 4 min after adding it
Measured: 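Per-well fluo-4 fluorescence in two replicates, unnormalised, measured in resting cells and 4 min after store depletion by the SERCA blocker thapsigargin; ratio of the two present in few wells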
Scale: calcium entry signal: higher = stronger calcium signal after store depletion; resting calcium signal: higher = higher resting calcium signal
Units: calcium entry signal in fluorescence units; resting calcium signal in fluorescence units
Hit rule: 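Hit if the duplicate-averaged plate z-score for entry over resting signal is under −3; wells with weak total dye signal (Fmax z < −2) or more than 5 off-targets removed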
Calls: active = strongly reduced calcium entry; inactive = no strong reduction
The deposit covers about 23,000 reagents; below is a random part of those with a known target gene and a result. In the full data, 75 (0.33%) are marked active. 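Raw plate signals without normalisation; calls rest on plate z-scores that were not deposited; ratio present for only 364 wells.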 The numbers tell different reagents against one gene apart. A plus sign joins genes that one reagent is predicted to hit. The record does not give: the dose of the treatment.

For pigeon (GeneID 35200), the entry reads calcium entry signal, replicate 1 = 4.39e7; resting calcium signal, replicate 1 = 2.35e7; inactive.
Depletion of ed (GeneID 33619) #1 resulted in: calcium entry signal, replicate 1 = 4.37e7; resting calcium signal, replicate 1 = 2.42e7; inactive.
With knock-down of ed (GeneID 33619) #2, the screen gave calcium entry signal, replicate 1 = 3.72e7; calcium entry signal, replicate 2 = 4.18e7; resting calcium signal, replicate 1 = 1.89e7; resting calcium signal, replicate 2 = 1.88e7; inactive.
With knock-down of ed (GeneID 33619) #3, the screen gave calcium entry signal, replicate 1 = 3.82e7; calcium entry signal, replicate 2 = 4.10e7; resting calcium signal, replicate 1 = 1.83e7; resting calcium signal, replicate 2 = 1.87e7; inactive.
With knock-down of ed (GeneID 33619) #4, the screen gave calcium entry signal, replicate 1 = 3.84e7; calcium entry signal, replicate 2 = 4.05e7; resting calcium signal, replicate 1 = 1.83e7; resting calcium signal, replicate 2 = 1.85e7; inactive.
Knock-down of CG32032 (GeneID 192535) resulted in: calcium entry signal, replicate 1 = 5.21e7; calcium entry signal, replicate 2 = 6.80e7; resting calcium signal, replicate 1 = 2.36e7; resting calcium signal, replicate 2 = 3.00e7; inactive.
Ttc19 (GeneID 35172) showed calcium entry signal, replicate 1 = 4.45e7; calcium entry signal, replicate 2 = 4.84e7; resting calcium signal, replicate 1 = 2.16e7; resting calcium signal, replicate 2 = 2.15e7; inactive.
dally (GeneID 39013) #1 showed calcium entry signal, replicate 1 = 4.01e7; calcium entry signal, replicate 2 = 4.33e7; resting calcium signal, replicate 1 = 2.24e7; resting calcium signal, replicate 2 = 1.94e7; inactive.
Against dally (GeneID 39013) #2 the deposit lists calcium entry signal, replicate 1 = 4.35e7; calcium entry signal, replicate 2 = 3.21e7; resting calcium signal, replicate 1 = 2.74e7; resting calcium signal, replicate 2 = 1.37e7; inactive.
With knock-down of Lst8 (GeneID 31903), the screen gave calcium entry signal, replicate 1 = 3.51e7; calcium entry signal, replicate 2 = 4.41e7; resting calcium signal, replicate 1 = 1.55e7; resting calcium signal, replicate 2 = 1.98e7; inactive.
ADD1 (GeneID 36278) showed calcium entry signal, replicate 1 = 3.27e7; calcium entry signal, replicate 2 = 3.21e7; resting calcium signal, replicate 1 = 1.38e7; resting calcium signal, replicate 2 = 1.63e7; inactive.
CG42560 + CG42559 gave calcium entry signal, replicate 1 = 3.02e7; calcium entry signal, replicate 2 = 6.95e7; resting calcium signal, replicate 1 = 1.47e7; resting calcium signal, replicate 2 = 3.25e7; inactive.
Knock-down of CG15073 (GeneID 37155) came out at: calcium entry signal, replicate 1 = 5.57e7; calcium entry signal, replicate 2 = 5.41e7; resting calcium signal, replicate 1 = 2.30e7; resting calcium signal, replicate 2 = 2.63e7; inactive.

Taken from above:
Value of CG32032 (GeneID 192535) in “resting calcium signal, replicate 1”: 2.36e7
Entry for ADD1 (GeneID 36278) in “call”: inactive

Additional entries follow.
eEF5 (GeneID 37846) scored calcium entry signal, replicate 1 = 2.01e7; calcium entry signal, replicate 2 = 1.80e7; resting calcium signal, replicate 1 = 1.16e7; resting calcium signal, replicate 2 = 1.00e7; inactive.
Knock-down of CG9897 + asRNA:CR42742 gave: calcium entry signal, replicate 1 = 5.16e7; calcium entry signal, replicate 2 = 4.94e7; resting calcium signal, replicate 1 = 2.46e7; resting calcium signal, replicate 2 = 2.30e7; inactive.
Against Snm1 (GeneID 40669), the values are calcium entry signal, replicate 1 = 3.33e7; calcium entry signal, replicate 2 = 3.61e7; resting calcium signal, replicate 1 = 1.41e7; resting calcium signal, replicate 2 = 1.69e7; inactive.
eg (GeneID 40428) showed calcium entry signal, replicate 1 = 3.17e7; calcium entry signal, replicate 2 = 5.25e7; resting calcium signal, replicate 1 = 1.64e7; resting calcium signal, replicate 2 = 2.18e7; inactive.
Depletion of CG5321 (GeneID 32399) #1 came out at: calcium entry signal, replicate 1 = 3.16e7; calcium entry signal, replicate 2 = 3.58e7; resting calcium signal, replicate 1 = 1.71e7; resting calcium signal, replicate 2 = 1.67e7; inactive.
With knock-down of CG5321 (GeneID 32399) #2 the results were calcium entry signal, replicate 1 = 3.36e7; calcium entry signal, replicate 2 = 4.20e7; resting calcium signal, replicate 1 = 1.60e7; resting calcium signal, replicate 2 = 2.05e7; inactive.
CG11353 (GeneID 38560) showed calcium entry signal, replicate 1 = 6.17e7; calcium entry signal, replicate 2 = 4.68e7; resting calcium signal, replicate 1 = 3.82e7; resting calcium signal, replicate 2 = 1.80e7; inactive.
For Gen (GeneID 38594), the entry reads calcium entry signal, replicate 1 = 5.19e7; calcium entry signal, replicate 2 = 4.89e7; resting calcium signal, replicate 1 = 3.03e7; resting calcium signal, replicate 2 = 2.05e7; inactive.
